The target in this assay is sirtuin-1 (SIRT1) (human (endogenous in HCT116 and DLD1)) (UniProt Q96EB6). As to the kind of experiment: co-IP; endogenous proteins; HCT116 and DLD1 cell lysates immunoprecipitated with anti-SIRT1 or IgG control (100 µL lysate, 2 µL primary antibody, 4 ℃ 3 h; Protein A/G Magnetic Beads 4 ℃ overnight; washed thrice with lysis buffer), immunoblotted with anti-SIRT1 or anti-β-catenin.

Protein sequences, listed by entry. Tags and fused reporters are not part of them.
UniProt Q96EB6: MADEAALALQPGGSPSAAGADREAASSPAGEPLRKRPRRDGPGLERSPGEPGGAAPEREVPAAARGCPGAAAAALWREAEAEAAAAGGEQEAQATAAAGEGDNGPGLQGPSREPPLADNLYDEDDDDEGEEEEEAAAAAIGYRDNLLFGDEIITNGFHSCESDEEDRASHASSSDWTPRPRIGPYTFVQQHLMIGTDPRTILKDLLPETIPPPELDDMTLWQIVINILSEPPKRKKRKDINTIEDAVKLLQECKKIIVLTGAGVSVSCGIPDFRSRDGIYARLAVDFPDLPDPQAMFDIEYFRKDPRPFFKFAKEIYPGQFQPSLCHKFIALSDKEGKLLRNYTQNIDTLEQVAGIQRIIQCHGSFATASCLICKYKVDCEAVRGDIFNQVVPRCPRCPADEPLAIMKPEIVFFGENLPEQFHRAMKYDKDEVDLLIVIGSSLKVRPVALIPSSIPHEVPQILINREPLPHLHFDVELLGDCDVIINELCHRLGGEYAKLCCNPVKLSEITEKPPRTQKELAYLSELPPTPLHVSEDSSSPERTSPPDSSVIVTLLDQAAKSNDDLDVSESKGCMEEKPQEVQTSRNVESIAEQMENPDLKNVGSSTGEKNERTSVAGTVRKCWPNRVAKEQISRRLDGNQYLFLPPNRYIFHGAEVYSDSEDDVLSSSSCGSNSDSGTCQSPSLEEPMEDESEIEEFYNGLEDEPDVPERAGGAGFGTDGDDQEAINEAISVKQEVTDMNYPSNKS
UniProt P35222: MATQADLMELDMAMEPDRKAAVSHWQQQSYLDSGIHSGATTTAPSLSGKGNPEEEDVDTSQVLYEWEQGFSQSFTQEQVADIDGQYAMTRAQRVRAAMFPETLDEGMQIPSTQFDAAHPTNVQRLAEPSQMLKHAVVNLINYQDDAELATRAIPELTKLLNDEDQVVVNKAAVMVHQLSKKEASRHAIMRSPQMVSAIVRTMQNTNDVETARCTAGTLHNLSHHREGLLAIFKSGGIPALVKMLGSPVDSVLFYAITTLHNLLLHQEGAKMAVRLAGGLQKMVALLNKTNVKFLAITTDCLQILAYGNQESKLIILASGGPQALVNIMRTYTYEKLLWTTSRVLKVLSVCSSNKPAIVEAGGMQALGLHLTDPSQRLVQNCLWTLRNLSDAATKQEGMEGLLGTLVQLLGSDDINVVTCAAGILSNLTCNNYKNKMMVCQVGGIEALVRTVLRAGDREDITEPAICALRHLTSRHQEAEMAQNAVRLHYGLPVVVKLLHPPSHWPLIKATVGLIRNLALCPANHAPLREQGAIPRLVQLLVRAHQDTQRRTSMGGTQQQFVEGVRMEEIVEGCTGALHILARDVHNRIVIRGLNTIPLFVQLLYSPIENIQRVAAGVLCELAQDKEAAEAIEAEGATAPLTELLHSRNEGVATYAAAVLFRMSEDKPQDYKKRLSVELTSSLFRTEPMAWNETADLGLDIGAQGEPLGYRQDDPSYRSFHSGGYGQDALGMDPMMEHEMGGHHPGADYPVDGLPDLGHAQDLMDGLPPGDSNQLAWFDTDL

Results are given in words; binding and its absence hold for the method and conditions named. In cells and extracts the contact can be indirect. Some results given as binding are weak or reduced against the parent protein; the word gives no strength.

Turning to β-catenin (from UniProt P35222 1-781), the binding entry was “binds”.

These data come from article PMC10092765.
